Measurements published in publication PMC2717102.
Results are given in words; binding and its absence hold for the method and conditions named. Binding can be weak; no strength is given.

The chains behind the UniProt entries cited, without tags or fusion partners. Where a name states a change or a piece, a line headed by the entry shows the natural chain unless it says otherwise.
UniProt P26718: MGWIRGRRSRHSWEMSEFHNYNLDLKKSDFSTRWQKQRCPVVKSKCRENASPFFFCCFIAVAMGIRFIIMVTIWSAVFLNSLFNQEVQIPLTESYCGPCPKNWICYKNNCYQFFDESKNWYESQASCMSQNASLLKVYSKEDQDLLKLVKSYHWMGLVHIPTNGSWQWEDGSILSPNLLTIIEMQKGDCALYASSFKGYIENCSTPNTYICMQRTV

B1: MICA mutant N69Q_Q108L_Q120I_K154S_T155D (ligand, UniProt Q29983 24-297)
chain: EPHSLRYNLTVLSWDGSVQSGFLTEVHLDGQPFLRCDRQKCRAKPQGQWAEDVLGNKTWDRETRDLTGQGKDLRMTLAHIKDQKEGLHSLQEIRVCEIHEDNSTRSSLHFYYDGELFLSINLETKEWTMPQSSRAQTLAMNVRNFLKEDAMKTSDHYHAMHADCLQELRRYLKSGVVLRRTVPPMVNVTRSEASEGNITVTCRASGFYPWNITLSWRQDGVSLSHDTQQWGDVLPDGNGTYQTWVATRICQGEEQRFTCYMEHSGNHSTHPVPS
B2: MICA mutant N69W_K152E_K154S (ligand, UniProt Q29983 24-297)
chain: EPHSLRYNLTVLSWDGSVQSGFLTEVHLDGQPFLRCDRQKCRAKPQGQWAEDVLGNKTWDRETRDLTGWGKDLRMTLAHIKDQKEGLHSLQEIRVCEIHEDNSTRSSQHFYYDGELFLSQNLETKEWTMPQSSRAQTLAMNVRNFLKEDAMETSTHYHAMHADCLQELRRYLKSGVVLRRTVPPMVNVTRSEASEGNITVTCRASGFYPWNITLSWRQDGVSLSHDTQQWGDVLPDGNGTYQTWVATRICQGEEQRFTCYMEHSGNHSTHPVPS
B3: MICA mutant N69Q_D72F_Q108L_K152V_Y157L (ligand, UniProt Q29983 24-297)
chain: EPHSLRYNLTVLSWDGSVQSGFLTEVHLDGQPFLRCDRQKCRAKPQGQWAEDVLGNKTWDRETRDLTGQGKFLRMTLAHIKDQKEGLHSLQEIRVCEIHEDNSTRSSLHFYYDGELFLSQNLETKEWTMPQSSRAQTLAMNVRNFLKEDAMVTKTHLHAMHADCLQELRRYLKSGVVLRRTVPPMVNVTRSEASEGNITVTCRASGFYPWNITLSWRQDGVSLSHDTQQWGDVLPDGNGTYQTWVATRICQGEEQRFTCYMEHSGNHSTHPVPS
B4: MICA mutant N69W (ligand, UniProt Q29983 24-297)
chain: EPHSLRYNLTVLSWDGSVQSGFLTEVHLDGQPFLRCDRQKCRAKPQGQWAEDVLGNKTWDRETRDLTGWGKDLRMTLAHIKDQKEGLHSLQEIRVCEIHEDNSTRSSQHFYYDGELFLSQNLETKEWTMPQSSRAQTLAMNVRNFLKEDAMKTKTHYHAMHADCLQELRRYLKSGVVLRRTVPPMVNVTRSEASEGNITVTCRASGFYPWNITLSWRQDGVSLSHDTQQWGDVLPDGNGTYQTWVATRICQGEEQRFTCYMEHSGNHSTHPVPS
B5: MICA mutant N69W_D72F_K152E (ligand, UniProt Q29983 24-297)
chain: EPHSLRYNLTVLSWDGSVQSGFLTEVHLDGQPFLRCDRQKCRAKPQGQWAEDVLGNKTWDRETRDLTGWGKFLRMTLAHIKDQKEGLHSLQEIRVCEIHEDNSTRSSQHFYYDGELFLSQNLETKEWTMPQSSRAQTLAMNVRNFLKEDAMETKTHYHAMHADCLQELRRYLKSGVVLRRTVPPMVNVTRSEASEGNITVTCRASGFYPWNITLSWRQDGVSLSHDTQQWGDVLPDGNGTYQTWVATRICQGEEQRFTCYMEHSGNHSTHPVPS
B6: MICA mutant Q108L (ligand, UniProt Q29983 24-297)
chain: EPHSLRYNLTVLSWDGSVQSGFLTEVHLDGQPFLRCDRQKCRAKPQGQWAEDVLGNKTWDRETRDLTGNGKDLRMTLAHIKDQKEGLHSLQEIRVCEIHEDNSTRSSLHFYYDGELFLSQNLETKEWTMPQSSRAQTLAMNVRNFLKEDAMKTKTHYHAMHADCLQELRRYLKSGVVLRRTVPPMVNVTRSEASEGNITVTCRASGFYPWNITLSWRQDGVSLSHDTQQWGDVLPDGNGTYQTWVATRICQGEEQRFTCYMEHSGNHSTHPVPS
B7: MICA mutant K152V_Y157L (ligand, UniProt Q29983 24-297)
chain: EPHSLRYNLTVLSWDGSVQSGFLTEVHLDGQPFLRCDRQKCRAKPQGQWAEDVLGNKTWDRETRDLTGNGKDLRMTLAHIKDQKEGLHSLQEIRVCEIHEDNSTRSSQHFYYDGELFLSQNLETKEWTMPQSSRAQTLAMNVRNFLKEDAMVTKTHLHAMHADCLQELRRYLKSGVVLRRTVPPMVNVTRSEASEGNITVTCRASGFYPWNITLSWRQDGVSLSHDTQQWGDVLPDGNGTYQTWVATRICQGEEQRFTCYMEHSGNHSTHPVPS
B8: MICA mutant K154D (ligand, UniProt Q29983 24-297)
chain: EPHSLRYNLTVLSWDGSVQSGFLTEVHLDGQPFLRCDRQKCRAKPQGQWAEDVLGNKTWDRETRDLTGNGKDLRMTLAHIKDQKEGLHSLQEIRVCEIHEDNSTRSSQHFYYDGELFLSQNLETKEWTMPQSSRAQTLAMNVRNFLKEDAMKTDTHYHAMHADCLQELRRYLKSGVVLRRTVPPMVNVTRSEASEGNITVTCRASGFYPWNITLSWRQDGVSLSHDTQQWGDVLPDGNGTYQTWVATRICQGEEQRFTCYMEHSGNHSTHPVPS
B9: MICA mutant K152V_K154S_T155D_Y157L (ligand, UniProt Q29983 24-297)
chain: EPHSLRYNLTVLSWDGSVQSGFLTEVHLDGQPFLRCDRQKCRAKPQGQWAEDVLGNKTWDRETRDLTGNGKDLRMTLAHIKDQKEGLHSLQEIRVCEIHEDNSTRSSQHFYYDGELFLSQNLETKEWTMPQSSRAQTLAMNVRNFLKEDAMVTSDHLHAMHADCLQELRRYLKSGVVLRRTVPPMVNVTRSEASEGNITVTCRASGFYPWNITLSWRQDGVSLSHDTQQWGDVLPDGNGTYQTWVATRICQGEEQRFTCYMEHSGNHSTHPVPS
B10: MICA mutant N69Q_Q120I_K154S_T155D (ligand, UniProt Q29983 24-297)
chain: EPHSLRYNLTVLSWDGSVQSGFLTEVHLDGQPFLRCDRQKCRAKPQGQWAEDVLGNKTWDRETRDLTGQGKDLRMTLAHIKDQKEGLHSLQEIRVCEIHEDNSTRSSQHFYYDGELFLSINLETKEWTMPQSSRAQTLAMNVRNFLKEDAMKTSDHYHAMHADCLQELRRYLKSGVVLRRTVPPMVNVTRSEASEGNITVTCRASGFYPWNITLSWRQDGVSLSHDTQQWGDVLPDGNGTYQTWVATRICQGEEQRFTCYMEHSGNHSTHPVPS
B11: MICA mutant N69Q_K154D (ligand, UniProt Q29983 24-297)
chain: EPHSLRYNLTVLSWDGSVQSGFLTEVHLDGQPFLRCDRQKCRAKPQGQWAEDVLGNKTWDRETRDLTGQGKDLRMTLAHIKDQKEGLHSLQEIRVCEIHEDNSTRSSQHFYYDGELFLSQNLETKEWTMPQSSRAQTLAMNVRNFLKEDAMKTDTHYHAMHADCLQELRRYLKSGVVLRRTVPPMVNVTRSEASEGNITVTCRASGFYPWNITLSWRQDGVSLSHDTQQWGDVLPDGNGTYQTWVATRICQGEEQRFTCYMEHSGNHSTHPVPS
B12: MICA mutant K152E_K154M (ligand, UniProt Q29983 24-297)
chain: EPHSLRYNLTVLSWDGSVQSGFLTEVHLDGQPFLRCDRQKCRAKPQGQWAEDVLGNKTWDRETRDLTGNGKDLRMTLAHIKDQKEGLHSLQEIRVCEIHEDNSTRSSQHFYYDGELFLSQNLETKEWTMPQSSRAQTLAMNVRNFLKEDAMETMTHYHAMHADCLQELRRYLKSGVVLRRTVPPMVNVTRSEASEGNITVTCRASGFYPWNITLSWRQDGVSLSHDTQQWGDVLPDGNGTYQTWVATRICQGEEQRFTCYMEHSGNHSTHPVPS
B13: MICA mutant N69W_D72W_K152E (ligand, UniProt Q29983 24-297)
chain: EPHSLRYNLTVLSWDGSVQSGFLTEVHLDGQPFLRCDRQKCRAKPQGQWAEDVLGNKTWDRETRDLTGWGKWLRMTLAHIKDQKEGLHSLQEIRVCEIHEDNSTRSSQHFYYDGELFLSQNLETKEWTMPQSSRAQTLAMNVRNFLKEDAMETKTHYHAMHADCLQELRRYLKSGVVLRRTVPPMVNVTRSEASEGNITVTCRASGFYPWNITLSWRQDGVSLSHDTQQWGDVLPDGNGTYQTWVATRICQGEEQRFTCYMEHSGNHSTHPVPS
B14: MICA mutant Q120I (ligand, UniProt Q29983 24-297)
chain: EPHSLRYNLTVLSWDGSVQSGFLTEVHLDGQPFLRCDRQKCRAKPQGQWAEDVLGNKTWDRETRDLTGNGKDLRMTLAHIKDQKEGLHSLQEIRVCEIHEDNSTRSSQHFYYDGELFLSINLETKEWTMPQSSRAQTLAMNVRNFLKEDAMKTKTHYHAMHADCLQELRRYLKSGVVLRRTVPPMVNVTRSEASEGNITVTCRASGFYPWNITLSWRQDGVSLSHDTQQWGDVLPDGNGTYQTWVATRICQGEEQRFTCYMEHSGNHSTHPVPS
B15: MICA mutant N69W_K152E (ligand, UniProt Q29983 24-297)
chain: EPHSLRYNLTVLSWDGSVQSGFLTEVHLDGQPFLRCDRQKCRAKPQGQWAEDVLGNKTWDRETRDLTGWGKDLRMTLAHIKDQKEGLHSLQEIRVCEIHEDNSTRSSQHFYYDGELFLSQNLETKEWTMPQSSRAQTLAMNVRNFLKEDAMETKTHYHAMHADCLQELRRYLKSGVVLRRTVPPMVNVTRSEASEGNITVTCRASGFYPWNITLSWRQDGVSLSHDTQQWGDVLPDGNGTYQTWVATRICQGEEQRFTCYMEHSGNHSTHPVPS
B16: MICA mutant N69Q_D72F_Q108L (ligand, UniProt Q29983 24-297)
chain: EPHSLRYNLTVLSWDGSVQSGFLTEVHLDGQPFLRCDRQKCRAKPQGQWAEDVLGNKTWDRETRDLTGQGKFLRMTLAHIKDQKEGLHSLQEIRVCEIHEDNSTRSSLHFYYDGELFLSQNLETKEWTMPQSSRAQTLAMNVRNFLKEDAMKTKTHYHAMHADCLQELRRYLKSGVVLRRTVPPMVNVTRSEASEGNITVTCRASGFYPWNITLSWRQDGVSLSHDTQQWGDVLPDGNGTYQTWVATRICQGEEQRFTCYMEHSGNHSTHPVPS
B17: MICA mutant N69Q_D72F (ligand, UniProt Q29983 24-297)
chain: EPHSLRYNLTVLSWDGSVQSGFLTEVHLDGQPFLRCDRQKCRAKPQGQWAEDVLGNKTWDRETRDLTGQGKFLRMTLAHIKDQKEGLHSLQEIRVCEIHEDNSTRSSQHFYYDGELFLSQNLETKEWTMPQSSRAQTLAMNVRNFLKEDAMKTKTHYHAMHADCLQELRRYLKSGVVLRRTVPPMVNVTRSEASEGNITVTCRASGFYPWNITLSWRQDGVSLSHDTQQWGDVLPDGNGTYQTWVATRICQGEEQRFTCYMEHSGNHSTHPVPS
B18: MICA mutant N69Q_D72F_K154S_T155D (ligand, UniProt Q29983 24-297)
chain: EPHSLRYNLTVLSWDGSVQSGFLTEVHLDGQPFLRCDRQKCRAKPQGQWAEDVLGNKTWDRETRDLTGQGKFLRMTLAHIKDQKEGLHSLQEIRVCEIHEDNSTRSSQHFYYDGELFLSQNLETKEWTMPQSSRAQTLAMNVRNFLKEDAMKTSDHYHAMHADCLQELRRYLKSGVVLRRTVPPMVNVTRSEASEGNITVTCRASGFYPWNITLSWRQDGVSLSHDTQQWGDVLPDGNGTYQTWVATRICQGEEQRFTCYMEHSGNHSTHPVPS

Each binder was assayed against homodimeric NKG2D (UniProt P26718) (assay: SEC; small-zone analytical SEC, Superdex 75 10/300, 0.5 mL/min, HBS-EA (10 mM HEPES pH 7.4, 150 mM NaCl, 3 mM EDTA, 0.02% sodium azide), no urea; homodimeric NKG2D and MICA mixed and immediately injected; ++ separate ~60-kDa peak, + early shoulder to the ~30-kDa peak, - only the ~30-kDa peak; both purified).

binding, binds:
B1, B2, B3, B4, B5, B6, B7, B8, B9, B10, B11, B12, B13, B14, B15, B16, B17, B18
